Reference: the supplement of paper PMC10849652
Some of the results follow.

Sequences of proteins named here, by UniProt entry; tags and fusion partners are left off. A change or cut given only in a name is not applied to a line headed by its entry.
UniProt P0DMM9: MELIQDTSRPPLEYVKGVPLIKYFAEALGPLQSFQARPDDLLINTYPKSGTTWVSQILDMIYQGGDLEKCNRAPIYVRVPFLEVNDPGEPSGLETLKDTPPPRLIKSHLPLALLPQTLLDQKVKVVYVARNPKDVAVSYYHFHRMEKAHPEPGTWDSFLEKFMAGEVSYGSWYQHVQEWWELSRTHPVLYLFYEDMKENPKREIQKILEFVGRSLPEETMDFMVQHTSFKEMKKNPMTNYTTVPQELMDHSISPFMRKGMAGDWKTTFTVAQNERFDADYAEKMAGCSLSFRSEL
UniProt P08842: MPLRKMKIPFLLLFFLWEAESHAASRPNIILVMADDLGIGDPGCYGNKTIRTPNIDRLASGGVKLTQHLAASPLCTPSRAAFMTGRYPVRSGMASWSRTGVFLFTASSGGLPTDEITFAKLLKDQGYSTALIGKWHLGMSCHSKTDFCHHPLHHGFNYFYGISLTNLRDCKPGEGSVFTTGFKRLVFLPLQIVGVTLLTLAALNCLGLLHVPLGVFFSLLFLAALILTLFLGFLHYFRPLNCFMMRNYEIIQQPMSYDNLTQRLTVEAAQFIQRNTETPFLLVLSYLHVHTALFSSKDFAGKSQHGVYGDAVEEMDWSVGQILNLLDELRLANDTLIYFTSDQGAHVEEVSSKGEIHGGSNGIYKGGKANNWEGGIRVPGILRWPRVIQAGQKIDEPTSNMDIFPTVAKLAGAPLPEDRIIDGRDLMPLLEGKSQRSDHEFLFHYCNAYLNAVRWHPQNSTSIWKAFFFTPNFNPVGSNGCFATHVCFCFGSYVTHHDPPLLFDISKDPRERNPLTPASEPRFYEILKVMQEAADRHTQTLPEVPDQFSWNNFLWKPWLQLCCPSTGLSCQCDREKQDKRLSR
UniProt Q15572: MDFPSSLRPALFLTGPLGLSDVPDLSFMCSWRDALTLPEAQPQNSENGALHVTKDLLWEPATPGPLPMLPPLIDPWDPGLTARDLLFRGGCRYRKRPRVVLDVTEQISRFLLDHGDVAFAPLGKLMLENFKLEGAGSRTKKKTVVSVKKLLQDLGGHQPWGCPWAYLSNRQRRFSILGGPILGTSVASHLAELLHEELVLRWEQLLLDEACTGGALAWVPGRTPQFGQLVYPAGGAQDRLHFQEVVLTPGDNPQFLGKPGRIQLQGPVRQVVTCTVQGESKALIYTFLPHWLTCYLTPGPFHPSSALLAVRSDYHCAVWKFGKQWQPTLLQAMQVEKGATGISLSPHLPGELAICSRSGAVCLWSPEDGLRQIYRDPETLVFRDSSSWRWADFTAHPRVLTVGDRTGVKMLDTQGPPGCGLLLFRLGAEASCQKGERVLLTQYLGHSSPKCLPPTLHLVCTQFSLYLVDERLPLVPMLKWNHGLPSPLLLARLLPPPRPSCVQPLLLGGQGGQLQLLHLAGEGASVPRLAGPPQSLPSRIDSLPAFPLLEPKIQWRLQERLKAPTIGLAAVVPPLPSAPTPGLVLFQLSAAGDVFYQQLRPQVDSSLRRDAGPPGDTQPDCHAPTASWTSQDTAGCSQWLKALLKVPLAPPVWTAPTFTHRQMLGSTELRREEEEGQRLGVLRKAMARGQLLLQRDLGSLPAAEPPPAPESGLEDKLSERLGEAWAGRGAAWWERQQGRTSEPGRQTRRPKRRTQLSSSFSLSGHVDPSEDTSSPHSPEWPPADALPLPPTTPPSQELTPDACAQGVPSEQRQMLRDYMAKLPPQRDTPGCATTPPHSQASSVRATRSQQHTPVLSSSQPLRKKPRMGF
UniProt Q9C0K7: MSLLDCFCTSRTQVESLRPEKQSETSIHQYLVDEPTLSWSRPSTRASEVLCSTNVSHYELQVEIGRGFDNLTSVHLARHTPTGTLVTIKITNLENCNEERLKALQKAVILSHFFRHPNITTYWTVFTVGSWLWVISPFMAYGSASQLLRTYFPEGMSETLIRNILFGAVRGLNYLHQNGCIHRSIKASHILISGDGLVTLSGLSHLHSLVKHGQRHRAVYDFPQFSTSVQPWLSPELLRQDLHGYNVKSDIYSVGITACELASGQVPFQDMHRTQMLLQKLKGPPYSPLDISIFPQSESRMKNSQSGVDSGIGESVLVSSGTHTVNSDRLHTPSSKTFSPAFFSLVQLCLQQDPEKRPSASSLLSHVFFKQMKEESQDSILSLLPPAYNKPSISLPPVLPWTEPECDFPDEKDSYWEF
UniProt Q96L08: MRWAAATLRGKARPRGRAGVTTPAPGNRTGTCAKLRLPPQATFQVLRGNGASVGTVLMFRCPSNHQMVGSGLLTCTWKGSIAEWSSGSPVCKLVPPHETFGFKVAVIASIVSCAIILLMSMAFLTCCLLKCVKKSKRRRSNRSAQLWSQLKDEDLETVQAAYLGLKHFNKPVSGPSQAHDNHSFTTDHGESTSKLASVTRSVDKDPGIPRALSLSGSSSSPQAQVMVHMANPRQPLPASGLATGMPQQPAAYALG
UniProt P49842: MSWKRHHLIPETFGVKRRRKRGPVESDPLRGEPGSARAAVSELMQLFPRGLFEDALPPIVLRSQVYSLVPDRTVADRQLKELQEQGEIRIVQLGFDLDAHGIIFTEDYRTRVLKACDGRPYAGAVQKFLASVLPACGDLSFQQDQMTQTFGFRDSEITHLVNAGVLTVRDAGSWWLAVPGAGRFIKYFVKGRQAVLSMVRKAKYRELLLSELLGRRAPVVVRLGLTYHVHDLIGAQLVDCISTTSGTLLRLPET
UniProt Q6PIF2: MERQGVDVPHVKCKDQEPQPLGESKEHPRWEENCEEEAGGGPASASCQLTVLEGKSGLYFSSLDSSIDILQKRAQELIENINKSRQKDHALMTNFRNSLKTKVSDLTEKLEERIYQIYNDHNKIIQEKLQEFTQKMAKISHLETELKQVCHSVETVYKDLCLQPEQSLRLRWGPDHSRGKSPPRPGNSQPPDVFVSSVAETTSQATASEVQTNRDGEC
UniProt Q15573: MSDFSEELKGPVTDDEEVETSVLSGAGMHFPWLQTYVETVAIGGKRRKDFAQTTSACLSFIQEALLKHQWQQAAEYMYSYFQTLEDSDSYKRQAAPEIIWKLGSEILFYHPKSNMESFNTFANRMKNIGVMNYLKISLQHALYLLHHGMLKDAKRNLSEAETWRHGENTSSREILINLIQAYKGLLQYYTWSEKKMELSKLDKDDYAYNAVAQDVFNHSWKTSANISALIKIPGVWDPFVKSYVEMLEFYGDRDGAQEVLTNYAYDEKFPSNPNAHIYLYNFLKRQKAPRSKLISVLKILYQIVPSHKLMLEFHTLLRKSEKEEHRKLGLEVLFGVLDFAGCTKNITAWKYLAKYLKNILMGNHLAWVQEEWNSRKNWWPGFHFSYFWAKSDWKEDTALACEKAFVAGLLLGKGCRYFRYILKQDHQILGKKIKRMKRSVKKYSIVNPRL
UniProt Q8NFX7: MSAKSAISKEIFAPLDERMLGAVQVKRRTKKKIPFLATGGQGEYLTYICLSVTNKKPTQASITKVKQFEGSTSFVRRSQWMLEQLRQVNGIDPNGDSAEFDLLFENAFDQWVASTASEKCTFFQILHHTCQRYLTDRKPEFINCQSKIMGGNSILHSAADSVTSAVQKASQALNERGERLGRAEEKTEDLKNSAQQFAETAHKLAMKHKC
UniProt Q9HAC7: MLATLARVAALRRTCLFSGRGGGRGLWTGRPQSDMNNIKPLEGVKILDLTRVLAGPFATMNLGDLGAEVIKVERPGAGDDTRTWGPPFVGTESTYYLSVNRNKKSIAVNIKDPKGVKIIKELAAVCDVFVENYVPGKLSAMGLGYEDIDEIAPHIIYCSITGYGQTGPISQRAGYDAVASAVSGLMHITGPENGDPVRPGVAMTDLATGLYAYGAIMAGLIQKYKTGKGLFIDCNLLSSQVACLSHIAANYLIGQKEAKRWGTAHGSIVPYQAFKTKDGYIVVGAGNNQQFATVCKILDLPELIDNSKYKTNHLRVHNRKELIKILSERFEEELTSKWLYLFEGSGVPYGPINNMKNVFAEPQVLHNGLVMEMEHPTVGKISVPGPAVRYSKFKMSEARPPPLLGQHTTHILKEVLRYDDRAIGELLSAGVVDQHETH
UniProt Q86TL2: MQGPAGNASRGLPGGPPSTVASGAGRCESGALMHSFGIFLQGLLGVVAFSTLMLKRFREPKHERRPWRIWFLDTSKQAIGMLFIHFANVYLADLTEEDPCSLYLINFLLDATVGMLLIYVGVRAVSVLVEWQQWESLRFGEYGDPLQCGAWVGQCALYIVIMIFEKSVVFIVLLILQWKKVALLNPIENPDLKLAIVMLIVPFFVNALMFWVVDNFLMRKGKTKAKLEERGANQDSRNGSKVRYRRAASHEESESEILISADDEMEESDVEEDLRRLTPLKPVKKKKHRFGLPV
UniProt Q15544, whole entry, looked up: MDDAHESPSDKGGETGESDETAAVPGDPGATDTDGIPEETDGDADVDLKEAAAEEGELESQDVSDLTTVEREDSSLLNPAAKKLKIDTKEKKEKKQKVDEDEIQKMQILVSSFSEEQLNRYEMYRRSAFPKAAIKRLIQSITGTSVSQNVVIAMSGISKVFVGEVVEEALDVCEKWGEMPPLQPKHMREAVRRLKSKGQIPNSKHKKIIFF
UniProt O94768: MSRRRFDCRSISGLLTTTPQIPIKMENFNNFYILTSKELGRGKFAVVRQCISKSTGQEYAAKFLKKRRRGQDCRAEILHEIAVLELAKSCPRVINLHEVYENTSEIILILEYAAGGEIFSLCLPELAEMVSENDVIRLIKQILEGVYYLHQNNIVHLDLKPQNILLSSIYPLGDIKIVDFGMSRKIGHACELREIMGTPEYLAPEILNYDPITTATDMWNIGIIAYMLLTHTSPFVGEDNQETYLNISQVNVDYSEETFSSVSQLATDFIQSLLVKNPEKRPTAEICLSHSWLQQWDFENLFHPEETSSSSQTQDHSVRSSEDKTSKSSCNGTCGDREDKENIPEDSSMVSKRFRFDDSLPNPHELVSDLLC
UniProt Q9HCH5: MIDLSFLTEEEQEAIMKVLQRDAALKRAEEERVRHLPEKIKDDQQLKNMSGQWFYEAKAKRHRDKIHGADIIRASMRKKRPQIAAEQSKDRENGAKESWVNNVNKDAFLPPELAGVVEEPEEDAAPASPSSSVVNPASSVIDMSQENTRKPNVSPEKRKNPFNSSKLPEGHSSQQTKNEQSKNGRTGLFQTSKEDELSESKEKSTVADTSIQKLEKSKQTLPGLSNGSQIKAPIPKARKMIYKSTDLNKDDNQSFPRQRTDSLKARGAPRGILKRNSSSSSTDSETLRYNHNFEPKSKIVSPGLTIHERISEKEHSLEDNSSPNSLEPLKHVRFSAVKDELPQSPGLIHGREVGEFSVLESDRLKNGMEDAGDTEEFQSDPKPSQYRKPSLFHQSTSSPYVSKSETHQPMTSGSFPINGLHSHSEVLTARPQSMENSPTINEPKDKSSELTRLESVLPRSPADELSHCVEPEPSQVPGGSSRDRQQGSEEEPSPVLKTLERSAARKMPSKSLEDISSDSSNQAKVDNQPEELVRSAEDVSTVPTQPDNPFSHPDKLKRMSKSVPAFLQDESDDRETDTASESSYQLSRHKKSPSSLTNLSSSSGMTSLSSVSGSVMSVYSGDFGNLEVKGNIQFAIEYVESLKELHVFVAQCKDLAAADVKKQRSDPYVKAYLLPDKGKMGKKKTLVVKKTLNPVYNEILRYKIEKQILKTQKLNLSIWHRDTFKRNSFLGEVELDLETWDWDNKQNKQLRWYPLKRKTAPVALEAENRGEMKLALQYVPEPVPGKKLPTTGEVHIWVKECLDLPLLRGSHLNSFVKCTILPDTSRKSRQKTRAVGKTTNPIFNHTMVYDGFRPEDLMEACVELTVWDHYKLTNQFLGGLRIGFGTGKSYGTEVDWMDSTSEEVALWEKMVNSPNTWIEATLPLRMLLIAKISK
UniProt Q53T94: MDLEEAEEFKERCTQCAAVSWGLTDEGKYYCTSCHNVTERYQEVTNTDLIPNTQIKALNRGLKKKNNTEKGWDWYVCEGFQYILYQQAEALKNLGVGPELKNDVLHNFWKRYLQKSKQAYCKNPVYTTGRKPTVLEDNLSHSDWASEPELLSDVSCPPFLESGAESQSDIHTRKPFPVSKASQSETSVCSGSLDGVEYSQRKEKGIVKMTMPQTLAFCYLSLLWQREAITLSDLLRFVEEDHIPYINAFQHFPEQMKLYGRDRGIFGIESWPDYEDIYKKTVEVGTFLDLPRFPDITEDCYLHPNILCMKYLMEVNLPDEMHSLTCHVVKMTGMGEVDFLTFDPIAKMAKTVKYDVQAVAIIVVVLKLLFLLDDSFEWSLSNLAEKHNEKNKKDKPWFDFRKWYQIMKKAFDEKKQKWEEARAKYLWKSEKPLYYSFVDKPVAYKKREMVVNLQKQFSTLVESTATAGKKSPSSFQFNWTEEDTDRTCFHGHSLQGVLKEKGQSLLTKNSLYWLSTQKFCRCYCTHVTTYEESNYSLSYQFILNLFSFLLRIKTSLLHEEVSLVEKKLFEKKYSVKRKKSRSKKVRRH

Tests used:
Assay in all cases: log2 fold change, soluble protein after heating vs DMSO (PISA); higher = thermal stabilisation; K562 lysate, 10 uM; active = over 0.2 and 3.5 SD of the protein, either way, in both replicates (recomputed)
[1] = compound: C#Cc1cccc(Nc2ncnc3cc(OCCOC)c(OCCOC)cc23)c1 [erlotinib]
In short: (§1)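 Pellets of K562 cells were dounce-homogenised in PBS pH 7.4 with 1 mM MgCl2, and the crude extract was held at 1 mg/mL protein for a 30 min treatment with 10 μM compound. Aliquots were heated for 3 min over 48°C-58°C and pooled before NP-40 was added to 0.5% at 4°C. The supernatant from 21,000xg for 90 min was quantified by TMTpro 16plex LC-MS/MS with channel sums equalised. Values are reported from duplicates as log-two fold change in thermal stability relative to solvent controls.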

[2] = compound: C1=CC(=CC=C1C2=NC3=C(N2)C=C(C=C3)C(=O)N)OC4=CC=C(C=C4)Cl
In short: as §1

[3] = compound: C1=CC2=NC=CN=C2C=C1/C=C/3\C(=O)NC(=O)S3
In short: as §1

[4] = compound: C1=CC=C(C=C1)C2=NC(=C(N2)C3=CC=NC=C3)C4=CC(=C(C=C4)Cl)O
In short: as §1

[5] = compound: C1CCN(C1)C(=O)NC2=CC=CC(=C2)NC3=NC=C(C(=N3)NCCC4=CN=CN4)Br
In short: as §1

[6] = compound: C1CN(CCC1(CC2=CC=C(C=C2)Cl)N)C3=NC=NC4=C3C=CN4
In short: as §1

[7] = compound: C1COCCN1CCN2C3=CC=CC=C3N=C2NC(=O)C4=CC(=CC=C4)[N+](=O)[O-] [IRAK-1-4 Inhibitor I]
In short: as §1

[8] = compound: C=CC(=O)N1CCC[C@@H](n2nc(-c3ccc(Oc4ccccc4)cc3)c3c(N)ncnc32)C1 [ibrutinib]
In short: as §1

[9] = compound: CC(C)(C)Cn1c(N)nc2ccc(-c3[nH]c(C(C)(C)C)nc3-c3ccc(F)cc3)nc21 [ralimetinib]
In short: as §1

[10] = compound: CC(C)(O)CC(=O)NCCn1ccc2ncnc(Nc3ccc(Oc4cccc(C(F)(F)F)c4)c(Cl)c3)c21
In short: as §1

[11] = compound: CC(C)C1=C2N=C(C=C(N2N=C1)NCC3=CC=CC=C3)NCCCCCCN
In short: as §1

[12] = compound: CC1=C(C(CC(=O)N1)C2=CC=C(C=C2)C(F)(F)F)C(=O)NC3=C(C=C4C(=C3)C=NN4)F
In short: as §1

[13] = compound: CC1=C(C2=C(C=C1)C(=O)C3=CC=CC=C3N2CCCN)C
In short: as §1

[14] = compound: CC1=C(C=C(C=C1)NC(=O)C2=CC(=CC=C2)C(C)(C)C#N)NC3=CC4=C(C=C3)N=CN(C4=O)C
In short: as §1

[15] = compound: CC1=C(C=C(C=C1)NC(=O)C2=CC(=CC=C2)N(C)C)NC(=O)C3=CC=C(C=C3)O
In short: as §1

[16] = compound: CC(=O)c1cnc2ccc(-c3cc(Cl)c(O)c(Cl)c3)nc2c1N[C@H]1CC[C@H](CN(C)C)CC1
In short: as §1

[17] = compound: CC1=CC=C(C=C1)SC2=C3C=C(SC3=CN=C2)C(=O)N
In short: as §1

[18] = compound: C/C(=N\NC(=O)C1=CC(=CC=C1)S(=O)(=O)N2CCOCC2)/C3=C(C=CC(=C3)Cl)O
In short: as §1

[19] = compound: C1=CC2=C(C=CC(=C2)/C=C\3/C(=O)NC(=NCC4=CC=CS4)S3)N=C1
In short: as §1

[20] = compound: C1=CC=C2C(=C1)C3=NNC4=CC=CC(=C43)C2=O
In short: as §1

Measured: log2 fold change

SULT1A3 isoform 3 (UniProt P0DMM9)
inactive: [1] -0.015 | [2] 0.031 | [3] 0.041 | [4] 0.099 | [5] 0.002 | [6] -0.094 | [7] 0.031 | [8] -0.048 | [9] -0.022 | [10] -0.088 | [11] 0.053 | [12] -0.051 | [13] -0.043 | [14] -0.007 | [15] -0.035

STIM2 isoform 2 (UniProt Q9P246)
inactive: [1] -0.176 | [2] 0.166 | [4] 0.015 | [5] -0.061 | [6] 0.046 | [7] -0.059 | [16] 0.043 | [9] -0.031 | [10] -0.18 | [11] -0.14 | [12] 0.237 | [13] -0.041 | [14] -0.042 | [15] 0.076 | [17] 0.093

STS (UniProt P08842)
inactive: [18] -0.152 | [19] 0.041 | [3] 0.35 | [4] 0.059 | [20] 0.057 | [7] -0.171 | [8] 0.036 | [9] -0.123 | [10] -0.1 | [12] 0.055 | [14] 0.023 | [15] 0.281

TAF1C (UniProt Q15572)
inactive: [18] 0.1 | [19] 0 | [3] -0.055 | [4] 0 | [20] -0.109 | [5] 0.105 | [6] -0.074 | [7] -0.14 | [8] 0.052 | [9] 0.088 | [10] -0.01 | [12] 0.096 | [13] -0.008 | [14] -0.035 | [15] -0.02

STRADB (UniProt Q9C0K7)
inactive: [1] -0.4 | [2] 0.497 | [11] 0.102

SUSD3 (UniProt Q96L08)
inactive: [1] -0.057 | [2] -0.231 | [4] 0.101 | [7] -0.038 | [16] -0.328 | [9] 0.086 | [10] -0.046 | [11] 0.012 | [15] 0.06 | [17] 0.081

SUPT5H isoform 2 (UniProt O00267)
inactive: [18] -0.278 | [19] -0.007 | [3] 0.101 | [20] -0.274 | [8] -0.119 | [16] 0 | [12] 0.032 | [13] 0.102 | [14] 0.059 | [17] -0.024

STK19 (UniProt P49842)
inactive: [12] -0.01 | [13] 0.002 | [14] -0.05

SYCE2 (UniProt Q6PIF2)
inactive: [14] 0.044

TAF1A (UniProt Q15573)
inactive: [18] -0.097 | [19] -0.002 | [20] 0.163 | [12] 0.025

STXBP6 (UniProt Q8NFX7)
inactive: [1] -0.151 | [2] 0.021 | [3] 0.076 | [4] 0.122 | [7] 0.068 | [8] -0.054 | [9] 0.053 | [10] 0.256 | [11] -0.097 | [12] 0.013 | [14] -0.051 | [15] -0.019

SURF2 (UniProt Q15527)
inactive: [18] 0.087 | [19] -0.019 | [3] 0.02 | [4] -0.004 | [20] 0.022 | [5] 0.051 | [6] 0.074 | [7] 0.035 | [8] 0.001 | [16] -0.019 | [9] -0.147 | [10] -0.038 | [12] 0.103 | [13] 0.018 | [14] 0.026 | [15] 0.031 | [17] -0.02

SUGCT isoform 3 (UniProt Q9HAC7)
inactive: [5] -0.109 | [6] -0.072 | [13] 0.096

STIMATE (UniProt Q86TL2)
inactive: [4] 0.023 | [7] 0.13 | [9] 0.047 | [10] 0.075 | [15] -0.045

TAF11 (UniProt Q15544)
inactive: [18] 0.174 | [19] -0.144 | [4] -0.04 | [20] 0.124 | [5] -0.242 | [6] 0.071 | [7] 0.051 | [16] -0.013 | [9] 0.027 | [10] 0.008 | [12] 0.015 | [13] 0.115 | [14] 0.052 | [15] 0.072 | [17] -0.114

STK17B (UniProt O94768)
inactive: [1] -0.041 | [2] -0.341 | [4] -0.022 | [7] -0.065 | [9] 0.104 | [10] -0.004 | [11] 0.162 | [12] 0.054 | [13] -0.102 | [14] 0.147 | [15] 0.07

Reprinted from the listing (2 entries):
STIMATE (UniProt Q86TL2)
inactive: [4] 0.023 | [7] 0.13 | [9] 0.047 | [10] 0.075 | [15] -0.045

TAF11 (UniProt Q15544)
inactive: [18] 0.174 | [19] -0.144 | [4] -0.04 | [20] 0.124 | [5] -0.242 | [6] 0.071 | [7] 0.051 | [16] -0.013 | [9] 0.027 | [10] 0.008 | [12] 0.015 | [13] 0.115 | [14] 0.052 | [15] 0.072 | [17] -0.114

Further records.

SYTL2 isoform 8 (UniProt Q9HCH5)
inactive: [3] -0.052 | [8] -0.108 | [16] -0.342 | [13] -0.141 | [17] -0.121

STRN3 (UniProt H0YJT2)
inactive: [5] -0.173 | [6] 0.326 | [13] -0.163

TAF1B (UniProt Q53T94)
inactive: [18] -0.283 | [19] -0.123 | [3] -0.001 | [4] 0.024 | [20] 0.013 | [5] 0.345 | [6] 0.123 | [7] -0.061 | [8] -0.156 | [16] 0.095 | [9] 0.043 | [10] -0.112 | [12] 0.419 | [13] -0.101 | [14] 0.032 | [15] 0.006 | [17] 0.138
